Reference: PubChem BioAssay AID2685 (National Center for Advancing Translational Sciences (NCATS), 2010)
The other results are listed elsewhere or left out. The main result of the screen is listed elsewhere. These columns were measured beside it and carry no call. The list favours compounds with an active or inconclusive main result. Potencies come from curve fits of mixed quality, noted in brackets.

Experiment: qHTS Assay for Lipid Storage Modulators in Drosophila S3 Cells;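 on cell number change: cells counted by Cell Tracker Red CMTPX staining in the red channel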
Details: BODIPY lipid droplet fluorescence, 18-24 h; for cell number change: measured here: cell count max response, cells fed with added oleic acid
Outline: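 Drosophila S3 cells got compounds at several concentrations plus oleic acid (400 uM solution). Laser-scanning cytometry with 488 nm excitation read lipid droplets at 500-530 nm and cells at 575-640 nm. Percent activity was relative to 20 uM Triacsin C.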

[1] = measured here: lipid fluorescence (Fed channel) AC50, cells fed with added oleic acid
[2] = measured here: cell number channel AC50, cells fed with added oleic acid

Structure (SMILES)	cell number change	AC50 [1]	AC50 [2]
CCN1CCN(c2oc(COc3ccc(-c4ccccc4)cc3)nc2C#N)CC1	-18.5%	–	–
COc1cc(/C=C2/C(=N)N3C(SC)=NSC3=NC2=O)ccc1OC(=O)c1ccco1	-0.451%	–	–
COCCN(C(=O)CC1CCCCC1)c1c(N)n(CC(C)C)c(=O)[nH]c1=O	10.4%	–	–
COc1ccc(S(=O)(=O)Nc2cc3c4c(oc3c3ccccc23)CCCC4=O)cc1	20.9%	0.651 µM [rising, partial curve, poor fit]	–
COc1cccc(Cn2c(=O)oc3ccccc32)c1	61.3%	–	20.6 µM [rising, single point]
COc1cc2cc(C(N)=O)c(N)nc2cc1OC	–	–	0.58 µM [falling, single point]
CC(=O)C(C(C)=O)c1cc(NS(=O)(=O)c2ccccc2)ccc1NS(=O)(=O)c1ccccc1	14.1%	–	–
O=C(COC(=O)Cn1cnc2ccccc21)Nc1cc2c(cc1Cl)C(=O)c1ccccc1C2=O	-3.5%	29.1 µM [falling, single point]	–
CN1C(=O)NC(c2ccc(O)cc2)C2=C1CN(c1ccc(O)cc1)C2=O (stereo not given)	7.1%	0.461 µM [falling, full curve]	0.411 µM [falling, full curve]
COc1ccccc1Oc1nc(C)c(C(C)=O)cc1C#N	1.9%	–	0.82 µM [rising, full curve, poor fit]
Cc1c(NC(=O)c2c(F)cccc2F)c(=O)n(-c2ccccc2)n1C	-1.64%	2.59 µM [falling, full curve, poor fit]	–
COc1ccc(OC)c(C2C(C(=O)c3sc(C)nc3C)=C(O)C(=O)N2CCN2CCOCC2)c1 (stereo not given)	1.1%	0.103 µM [rising, full curve, poor fit]	–
Cc1ccc(C(=O)Nc2cccc3[nH]c(C(F)(F)F)nc23)cc1	-41.3%	29.1 µM [falling, single point]	29.1 µM [falling, single point]
O=C(C1CCCN(c2nnc(-n3cccc3)s2)C1)N1CCN(c2ccccc2)CC1 (stereo not given)	-0.184%	–	–
CC(C)(C)S(=O)(=O)c1ccc(S(=O)(=O)C(C)(C)C)s1	1.91%	29.1 µM [rising, single point]	–
O=C1CCN(C(=O)c2ccc(Cl)cc2)N1	–	–	1.03 µM [rising, full curve]
COC(=O)c1cc(-c2ccc(OC)cc2)n[nH]1	-44.3%	–	0.0116 µM [falling, full curve, poor fit]
CCCSc1nc(C)cc(C)c1C(N)=O	-2.76%	–	–
CC1(C)CC2(CCCN(C(=S)Nc3ccccc3)C2)CCO1 (stereo not given)	-2.69%	3.26 µM [rising, single point]	–

Structure (SMILES)	cell number change	AC50 [1]	AC50 [2]
CCN(CC(=O)Nc1ccccc1C(F)(F)F)C(=O)CSCc1c(C)noc1C	6.11%	0.00731 µM [rising, full curve, poor fit]	–
Cc1cc(C)c(OCC(=O)N2CCN(c3ncc(C(F)(F)F)cc3Cl)CC2)c(C)c1	58.8%	14.6 µM [rising, partial curve]	14.6 µM [rising, partial curve]
CCC(NC(=O)c1cc(COc2cc(C)c(Cl)c(C)c2)on1)c1ccncc1 (stereo not given)	6.49%	6.51 µM [rising, partial curve, poor fit]	6.51 µM [rising, single point]
COc1ccc(Cl)cc1N(C)C(=O)CCc1nc(-c2ccc(C)cc2)no1	108%	16.4 µM [rising, partial curve]	18.4 µM [rising, partial curve]
CCN(CC)S(=O)(=O)c1ccc(CNC(=O)CN2C(=O)NC3(CCc4ccccc43)C2=O)cc1 (stereo not given)	-47%	–	13 µM [falling, partial curve, poor fit]
CC1CCC/C(=N/Nc2nc3ccccc3s2)C1 (stereo not given)	–	0.116 µM [rising, single point]	–
COc1cccc(Cn2nnc(C(=O)NCCc3ccc(Cl)cc3)c2N)c1	-3.69%	3.66 µM [rising, partial curve]	–
CC(CNC(=O)COc1ccccc1)OC(=O)Nc1cccc(Cl)c1 (stereo not given)	18.6%	8.2 µM [rising, single point]	–
COc1cc(C(=O)OCC(=O)Nc2ccc(F)cc2F)cc(OC)c1OC	100%	6.51 µM [rising, single point]	18.4 µM [rising, partial curve]
CCc1ccc(NC(=O)C2C3CCC(O3)C2C(=O)O)cc1 (stereo not given)	-4.05%	5.8 µM [falling, single point]	–
CCOC(=O)Cn1cc(/C=C/[N+](=O)[O-])c2ccccc21	-55.2%	7.31 µM [falling, partial curve]	13 µM [falling, partial curve, poor fit]
Cc1ccc(C(=O)N/C(=C\c2ccco2)C(=O)NCCN2CCOCC2)cc1C	-1.17%	5.17 µM [falling, single point]	–
O=C(/C=C/c1cccs1)NC(=S)NNC(=O)c1ccccc1O	-1.04%	0.82 µM [falling, full curve, poor fit]	–
O=C(COc1ccc(Cl)cc1)N(Cc1ccccc1)c1nc(-c2ccccc2)cs1	-14.5%	25.9 µM [rising, single point]	–
COc1cccc(-c2ncc3ccccc3c2COC(=O)c2ccco2)c1	-40.1%	29.1 µM [falling, single point]	29.1 µM [falling, single point]
Cc1ccccc1OCC(O)CN1CCN(CCN2C(=O)c3cccc4cccc(c34)C2=O)CC1 (stereo not given)	2.38%	0.651 µM [rising, partial curve, poor fit]	–
CCc1ccc(NC(=O)Cc2ccc(OC)cc2)cc1	-10.5%	6.51 µM [rising, partial curve, poor fit]	–
Cc1cc(C)c(NC(=O)CN(C)C(=O)C2CC(=O)N(c3cccc4ccccc34)C2)c(C)c1 (stereo not given)	-5.77%	6.51 µM [rising, partial curve]	–
Cc1cc(C)c(C)c(S(=O)(=O)NCC(=O)NCC2CCCCC2)c1C	22.9%	0.116 µM [falling, full curve, poor fit]	–

Molecules listed so far with an NH in an aromatic ring (3):
Structure (SMILES)	cell number change	AC50 [1]	AC50 [2]
COCCN(C(=O)CC1CCCCC1)c1c(N)n(CC(C)C)c(=O)[nH]c1=O	10.4%	–	–
Cc1ccc(C(=O)Nc2cccc3[nH]c(C(F)(F)F)nc23)cc1	-41.3%	29.1 µM [falling, single point]	29.1 µM [falling, single point]
COC(=O)c1cc(-c2ccc(OC)cc2)n[nH]1	-44.3%	–	0.0116 µM [falling, full curve, poor fit]
